Results published in PubChem BioAssay AID624330 (Southern Research Specialized Biocontainment Screening …, 2012).
Screen size: about 340,000 compounds; about 2,100 (0.62%) were called active. All entries are inconclusive by the source's own rule. Clear calls are listed elsewhere.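 The calls were made as follows: active = first-screen hits whose inhibition reached a set limit at any dose in the follow-up dose series; inconclusive = inhibition above the set first-screen limit but never retested; inactive = the rest.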

Protein sequences, listed by entry. Tags and fused reporters are not part of them.
UniProt Q9H0H5, whole entry: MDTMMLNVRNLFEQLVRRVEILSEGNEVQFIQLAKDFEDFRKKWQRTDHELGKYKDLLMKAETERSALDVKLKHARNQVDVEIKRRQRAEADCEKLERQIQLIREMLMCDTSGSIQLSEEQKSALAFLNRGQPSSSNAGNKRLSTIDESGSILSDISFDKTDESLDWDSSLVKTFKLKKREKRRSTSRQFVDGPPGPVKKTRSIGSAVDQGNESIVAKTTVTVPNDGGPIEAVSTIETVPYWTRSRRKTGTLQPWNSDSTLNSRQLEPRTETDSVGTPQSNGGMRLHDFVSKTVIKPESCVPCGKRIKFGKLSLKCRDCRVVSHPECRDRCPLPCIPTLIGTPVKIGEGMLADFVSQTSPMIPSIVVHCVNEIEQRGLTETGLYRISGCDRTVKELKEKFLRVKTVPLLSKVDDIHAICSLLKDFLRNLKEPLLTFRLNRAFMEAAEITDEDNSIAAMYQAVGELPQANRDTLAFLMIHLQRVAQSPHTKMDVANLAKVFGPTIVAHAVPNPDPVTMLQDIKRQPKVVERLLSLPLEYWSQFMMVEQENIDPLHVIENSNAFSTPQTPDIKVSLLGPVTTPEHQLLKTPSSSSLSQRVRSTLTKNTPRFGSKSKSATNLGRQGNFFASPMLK

What follows are compounds tested against Rac GTPase-activating protein 1 (Homo sapiens) (UniProt Q9H0H5) (assay: blockers of MgcRacGAP-driven Rac1 GTP hydrolysis – biochemical, ADP Hunter fluorescence, primary and confirmatory, confirmation (AID 624330;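 also: fluorescence reports GDP produced by GAP-driven GTP hydrolysis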)). Conditions: MgcRacGAP-stimulated Rac1 GTP hydrolysis, at 30 µM, stronger effect = higher value, GST-tagged Rac1 F28L mutant substrate.

SMILES	inhibition
COc1ccc(NC2CCN(C(=O)OC(C)(C)C)CC2)cc1	inconclusive: 81.6%
CCOC(=O)N1CCC(Nc2ccc(OC)cc2)CC1	inconclusive: 48.7%
COc1ccc(NC2CCN(CCc3ccccc3)CC2)c(OC)c1	inconclusive: 63.1%
